Screen size: about 52,000 sequences; about 210 (0.4%) were called active.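 How the source made its calls: active means gene whose silencing raises cell survival under the drug, median off-target-corrected z-score across its silencing RNAs 2 or more; inactive means the rest.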 The list shows a part of the results.

This assay can be described thus: Resistance to Poly (ADP-Ribose) Polymerase inhibitor: Gene Identification via Genome-wide siRNA Screen. The note with it: mouse BRCA2 R2336H ES cells, olaparib, CellTiter-Glo viability; active compounds read high. In outline:
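Genome-wide siRNA screen (3 siRNAs/gene, 20 nM) in mouse ES cells carrying hypomorphic BRCA2 R2336H; olaparib 500 nM added 48 h post-transfection, CellTiter-Glo viability 72 h later. Normalized to plate-median negative control; MAD z-scores, gene median, seed-adjusted.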
Turning to CCUUUACACGUAAAAGAAGTT against AW610627, the z-score is inactive: 0.692.

On to GGGACUUCAUCCGUCAAAATT against Dnajd1, for which the z-score was inactive: -0.799.

For the sequence CGUGAGCACAAAAAUAUUGTT against Fchsd2, the z-score is inactive: 2.03.

On to GGCUCCAACCAACAUUGUUTT against Rpa2, for which the z-score was inactive: -3.39.

For GUGUCAUCAUGCCCAAAAUTT against Olfr957, the z-score was inactive: -1.68.

For the sequence GGCCAGACCCGAACUUUGATT against Rnf2, the z-score was inactive: -2.14.

Turning to GCAGUGAAUGGACUCGAGATT against Pax1, the z-score was inactive: -0.272.

In the case of GCUUAUGAGUUCAGUUGUGTT against Olfr143, the z-score was inactive: -0.262.

GGCUUUAAGCUGGUGAUGGTT against Hmox1: the z-score was inactive: 0.194.

Take GCUUGUCCAAGUUAGGCGATT against Calm4: the z-score is inactive: -0.137.

GCAUGUAGUGGAGAAAUGCTT against Bat9: the z-score is inactive: -0.283.

In the case of GUGUCCAGUCCUAAAACGATT against Trib3, the z-score was inactive: -0.439.

With GGACCACUUGUAGUAUUUGTT against BC019977, the z-score was inactive: 0.129.

On to GCUUGAAUGGAGCGAAUCGTT against Chat, for which the z-score was inactive: 0.489.

With GGGACCAGAACAAGGUAGUTT against Olfr488, the z-score is inactive: 2.04.

As to CGUGGUAUGGUAAUGAUACTT against Scn4a, the z-score is inactive: 0.415.

Turning to “CCAUUGAUCUCAUCAACCCTT against 5730511K23Rik”, the z-score is inactive: -2.02.

On to GGCUUUUAGCCAGAAAGAATT against Zfp260, for which the z-score is inactive: 0.5.

For the sequence GCUUUAUCGCAGAAAAGGUTT against Nova2, the z-score was inactive: -0.0254.

With GGACACUUCCAAACUGACCTT against Tiparp, the z-score was inactive: -0.00604.

With GGACAAGAGACUUCAUAGCTT against Grpel2, the z-score was inactive: 0.54.

For GGAUCUAAUAAACCAAGUGTT against Slc25a10, the z-score was inactive: -1.59.

With “GGCUAAUGAAGCACGCAGATT against 1300010A20Rik”, the z-score is inactive: 1.99.

As to GCAGCUAACAAAUGUCAGCTT against Popdc3, the z-score was inactive: 0.324.

Turning to GGACUAUAAAUGUAUUCUCTT against Tfpi2, the z-score is inactive: -0.935.

“GGUAAAUAGUGACCAUGAATT against C330017I15Rik”: the z-score was inactive: 1.35.

Take GGAAAACUUUUCUGUCUGUTT against Dhx32: the z-score was inactive: 0.096.

As to GGGUUUAUCUUGAAGAAAATT against Cd48, the z-score is inactive: -0.222.

Take “GGAAAACAAGAGGUGAUCUTT against 3110001I22Rik”: the z-score is inactive: 0.525.

On to GUCCUGAAGAAGCUCAAGATT against Cart, for which the z-score was inactive: 1.03.

For GUAAAUACACCCAAACUGATT against Olfr1281, the z-score is inactive: 0.117.

For the sequence GGGUUUGUGGCUUCUUUUCTT against Ucp1, the z-score was inactive: 0.909.

GAGCUGUUGUAUCAACUCUTT against Rslcan24: the z-score was inactive: 0.578.

Regarding GCACAUCUCAUGAAGGAGGTT against Ppp3ca, the z-score was inactive: 1.64.

Take “GGGAUACCUCUGAGUGACUTT against A930027H06Rik”: the z-score is inactive: 0.0836.

Regarding GGACAGUCUACAUCUUUGUTT against AI428936, the z-score was inactive: -1.05.

In the case of GGAAAGCAUCUGCAUUAAATT against Mrpl18, the z-score is inactive: -0.206.

On to CCCGCUGAGAUACUCUGUATT against Olfr1395, for which the z-score was inactive: -0.904.

As to GGUGGAGAUCCGAAAGCAUTT against Ltk, the z-score is inactive: 0.652.

For GGACAGAUGACUUCAAUACTT against MP4, the z-score was inactive: 0.569.

Consider GGGAGAACAGCGACAAACATT against Cbfb, for which the z-score was inactive: -1.88.

As for CGAUCUGACAACUGAUAAGTT against Rad17, the z-score is inactive: -0.48.

GGAUAAUACAUCCCAAAACTT against Prkar2b: the z-score was inactive: 2.74.

With CCCUCAAAACCUAUGCCUUTT against Ugt1a2, the z-score is inactive: -0.0873.

Consider GCACAAGGACACGGAAUACTT against Npr3, for which the z-score is inactive: -1.96.

Turning to GCAACCUGUCAUUUUGUGATT against Olfr1134, the z-score was inactive: -0.249.

As for CCUUAUAUCUUGGUAUACGTT against Bmp3, the z-score is inactive: 1.03.

Regarding GGAUUGAGGGUCAAAUAACTT against Fkbp8, the z-score is inactive: -0.326.

CCUGAUCUCUUGCUACACCTT against Trpm3: the z-score is inactive: -0.274.

For GCGCAUUGUGUUCUGGUCUTT against Zswim4, the z-score is inactive: -1.04.

For the sequence GGAAGUUUCUGAGACUGUATT against Epx, the z-score is inactive: -1.99.

“CCGGCUUCACCGAAUACUUTT against B930076A02”: the z-score was inactive: -1.05.

Take GCCUUGUUACAAAUAGUCGTT against Tcf12: the z-score is inactive: 1.17.

As for GGUUGUUCUUGUCAGUAUUTT against Serpinb6c, the z-score was inactive: 0.256.

For “GGCAACACGAUGCAGCAGUTT against D0HXS9928E”, the z-score is inactive: 0.0401.

As for GGAACACAGAGGUAAAAGGTT against Olfr446, the z-score was inactive: -0.14.

As for GGCUAUGCAUCUCCUGUCATT against Gata4, the z-score is inactive: -2.06.

Turning to GGAAAGACUGCCUAUUCUGTT against Adfp, the z-score is inactive: -0.535.

Turning to GGGUGUUCCUAUCUCCUUCTT against Angptl6, the z-score was inactive: 0.00721.

Regarding “GGAAGAUCAUUGAUAACGCTT against 2810465F10Rik”, the z-score was inactive: -0.697.

GGUAGAGUUGGCUUUAUGGTT against Rhoa: the z-score is inactive: -0.062.

For GGGAAAUAAGUCUCGAACGTT against Kif13a, the z-score was inactive: 1.35.

Consider GCUGAAUUCAUUCAUAGCCTT against Cyp2d26, for which the z-score is inactive: 0.925.

Turning to GGGCUUUUGUUUUGAAACATT against Smc1l2, the z-score was inactive: -1.14.

For the sequence “CCCAUAACCAGAAUUAAAGTT against 4930511H01Rik”, the z-score is inactive: -0.176.

Turning to CCUAAAAUCCACCAAGCUUTT against Btbd4, the z-score was inactive: -2.09.

For the sequence GGUACAAGAGAUUUGAAAATT against AV249152, the z-score was inactive: -0.438.

Source of the values: PubChem BioAssay AID1347423 (Functional Genomics Laboratory (NCATS/FGL), 2020).
